Results are given in words; binding and its absence hold for the method and conditions named. For part of these data: In cells and extracts the contact can be indirect. Some results given as binding are weak or reduced against the parent protein; the word gives no strength.
Experiments:
GST-tagged peripherin = GST-tagged peripherin (UniProt P41219); experiment: pull-down; purified His-RAB7A incubated with GST or GST-peripherin in PBS with 2 mM MgCl2 and 0.8 mM GTP for 1 h; glutathione resin; blot with anti-RAB7A; both purified
HA-tagged RAB7A wt [1] = biological target: HA-tagged RAB7A wt (UniProt P18067); experiment: co-IP; HeLa cells expressing HA-RAB7A wt and MYC-peripherin 45 and/or MYC-peripherin 58; anti-HA immunoprecipitation; blot with anti-peripherin
HA-tagged RAB7A V162M = biological target: T1, HA-tagged RAB7A V162M (UniProt P18067 1-207, V162M); experiment: co-IP; as the co-immunoprecipitation in Neuro2A cells, but in PC12 cells; data not shown
T1 construct: RAB7A with a CMT2B disease mutation; plasmid described previously; also called disease-causing mutant; source: Neuro2A or PC12 cells, transfected, in lysate

Sequences of proteins named here, by UniProt entry; tags and fusion partners are left off. A change or cut given only in a name is not applied to a line headed by its entry. Residues count along the entry.
UniProt P41219: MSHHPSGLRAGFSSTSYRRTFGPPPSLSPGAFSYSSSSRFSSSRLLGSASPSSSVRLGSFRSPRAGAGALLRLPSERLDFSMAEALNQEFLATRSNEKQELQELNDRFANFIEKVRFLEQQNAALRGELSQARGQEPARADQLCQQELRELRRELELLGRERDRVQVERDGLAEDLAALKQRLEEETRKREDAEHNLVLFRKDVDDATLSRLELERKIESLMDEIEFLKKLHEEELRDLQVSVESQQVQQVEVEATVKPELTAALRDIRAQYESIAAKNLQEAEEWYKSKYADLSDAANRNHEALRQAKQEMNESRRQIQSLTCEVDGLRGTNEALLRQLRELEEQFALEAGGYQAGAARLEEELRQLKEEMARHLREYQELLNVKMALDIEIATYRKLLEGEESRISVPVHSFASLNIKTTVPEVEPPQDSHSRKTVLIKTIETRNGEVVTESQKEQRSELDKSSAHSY
UniProt P18067: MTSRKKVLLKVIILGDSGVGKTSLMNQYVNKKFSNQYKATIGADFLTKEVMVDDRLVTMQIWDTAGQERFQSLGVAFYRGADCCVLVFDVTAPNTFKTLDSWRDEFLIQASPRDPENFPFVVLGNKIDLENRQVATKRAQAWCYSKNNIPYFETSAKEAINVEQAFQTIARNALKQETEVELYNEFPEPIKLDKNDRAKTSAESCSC
GAL4-binding domain/RAB7A ΔC fusion construct: residues 1-204 of P18067
UniProt P51150: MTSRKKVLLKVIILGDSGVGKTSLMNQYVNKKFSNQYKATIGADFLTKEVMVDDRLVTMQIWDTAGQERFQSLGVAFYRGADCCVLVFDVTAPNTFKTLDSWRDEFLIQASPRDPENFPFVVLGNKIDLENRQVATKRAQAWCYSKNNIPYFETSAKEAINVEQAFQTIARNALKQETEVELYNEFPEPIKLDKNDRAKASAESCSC
UniProt P21807: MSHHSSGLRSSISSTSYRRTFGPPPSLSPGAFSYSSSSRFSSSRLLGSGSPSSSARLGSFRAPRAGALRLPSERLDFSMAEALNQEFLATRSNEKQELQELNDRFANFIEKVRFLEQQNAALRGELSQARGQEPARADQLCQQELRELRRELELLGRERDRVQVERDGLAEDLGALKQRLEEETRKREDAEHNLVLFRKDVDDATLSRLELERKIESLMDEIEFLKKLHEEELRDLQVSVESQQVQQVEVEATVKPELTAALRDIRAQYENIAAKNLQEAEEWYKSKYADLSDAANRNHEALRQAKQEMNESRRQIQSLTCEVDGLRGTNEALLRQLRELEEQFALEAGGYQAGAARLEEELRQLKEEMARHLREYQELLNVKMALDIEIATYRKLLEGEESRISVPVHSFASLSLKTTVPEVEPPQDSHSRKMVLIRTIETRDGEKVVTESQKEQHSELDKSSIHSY

MYC-tagged RAB7A wt [2] = biological target: MYC-tagged RAB7A wt (UniProt P18067); experiment: as above
HA-tagged RAB7A K157N = biological target: T2, HA-tagged RAB7A K157N (UniProt P18067 1-207, K157N); experiment: as above
T2 construct: RAB7A with a CMT2B disease mutation; plasmid described previously; also called disease-causing mutant; source: Neuro2A or PC12 cells, transfected, in lysate

HA-tagged RAB7A Q67L [3] = biological target: HA-tagged RAB7A Q67L (UniProt P18067); experiment: as above
HA-tagged RAB7A wt [4] = biological target: HA-tagged RAB7A wt (UniProt P18067); experiment: as above
HA-tagged RAB7A L129F = biological target: T3, HA-tagged RAB7A L129F (UniProt P18067 1-207, L129F); experiment: as above
T3 construct: RAB7A with a CMT2B disease mutation; plasmid described previously; also called disease-causing mutant; source: Neuro2A or PC12 cells, transfected, in lysate

HA-tagged RAB7A N161T = biological target: T4, HA-tagged RAB7A N161T (UniProt P18067 1-207, N161T); experiment: as above
T4 construct: RAB7A with a CMT2B disease mutation; plasmid described previously; also called disease-causing mutant; source: Neuro2A or PC12 cells, transfected, in lysate

[5] = biological target: GAL4-binding domain/RAB7A ΔC fusion construct (canine) (UniProt P18067); experiment: two-hybrid; screen of a human DRG cDNA library (Gal4 activation domain fusions in pGADT7Rec) with the Gal4-binding domain/RAB7A ΔC bait in AH109 yeast; synthetic medium lacking His, Leu and Trp, 30 °C
[6] = biological target: RAB7A (endogenous, Neuro2A cells) (mouse (endogenous in Neuro2A)) (UniProt P51150); experiment: co-IP; endogenous proteins; mouse anti-RAB7 antibody crosslinked to resin (DSS, Pierce kit), pre-cleared Neuro2A lysate; blot with rabbit anti-RAB7A and anti-peripherin
His-tagged RAB7A wt = His-tagged RAB7A wt (UniProt P18067); experiment: pull-down; 20 μg purified His-tagged RAB7A bound to NiNTA resin, incubated with Neuro2A cell extracts at 4 °C for 1 h; blot for peripherin; only the target purified
MYC-tagged RAB7A wt [7] = biological target: MYC-tagged RAB7A wt (UniProt P18067); experiment: co-IP; Neuro2A cells transfected with HA- or MYC-tagged RAB7A; RIPA lysate; anti-HA or anti-MYC resin 1 h at 4 °C; blot for endogenous peripherin
HA-tagged RAB7A Q67L [8] = biological target: HA-tagged RAB7A Q67L (UniProt P18067); experiment: as above
HA-tagged RAB7A wt [9] = biological target: HA-tagged RAB7A wt (UniProt P18067); experiment: as above

Measured: binding

His-tagged RAB7A wt (from UniProt P18067 1-207)
binds: GST-tagged peripherin

MYC-peripherin 45 (from UniProt P41219 82-470) (domain or fragment)
binds: HA-tagged RAB7A wt [1]

peripherin (endogenous, PC12 cells) (from UniProt P21807 1-468)
binds: HA-tagged RAB7A V162M | MYC-tagged RAB7A wt [2] | HA-tagged RAB7A K157N | HA-tagged RAB7A Q67L [3] | HA-tagged RAB7A wt [4] | HA-tagged RAB7A L129F | HA-tagged RAB7A N161T

peripherin, longest library clone (residue 280 to the end) (from UniProt P41219 280-470) (domain or fragment)
binds: [5]

B1: peripherin (endogenous, Neuro2A cells) (natural protein, mouse (endogenous in Neuro2A), UniProt P15331 1-475, looked up)
chain: MPSSASMSHHHSSGLRSSISSTSYRRTFGPPPSLSPGAFSYSSSSRFSSSRLLGSGSPSSSARLGSFRAPRAGALRLPSERLDFSMAEALNQEFLATRSNEKQELQELNDRFANFIEKVRFLEQQNAALRGELSQARGQEPARADQLCQQELRELRRELELLGRERDRVQVERDGLAEDLAALKQRLEEETRKREDAEHNLVLFRKDVDDATLSRLELERKIESLMDEIEFLKKLHEEELRDLQVSVESQQVQQVEVEATVKPELTAALRDIRAQYENIAAKNLQEAEEWYKSKYADLSDAANRNHEALRQAKQEMNESRRQIQSLTCEVDGLRGTNEALLRQLRELEEQFALEAGGYQAGAARLEEELRQLKEEMARHLREYQELLNVKMALDIEIATYRKLLEGEESRISVPVHSFASLSLKTTVPEMEPLQDSHSKKMVLIRTIETRDGEKVVTESQKEQHSDLDKSSIHSY
notes: peripherin endogenous in mouse Neuro2A neuroblastoma cells, detected with anti-peripherin antibodies; main form of 58 kDa (Per-58); also called Per-58; source: endogenous, Neuro2A lysate
binds: [6] | His-tagged RAB7A wt | MYC-tagged RAB7A wt [7] | HA-tagged RAB7A Q67L [8] | HA-tagged RAB7A wt [9]
